No constants are given. Whether binding was seen depends on the method and setting. Binding seen in cells or lysates may run through a third protein. Here binding means that the protein was enriched with, or labelled near, the bait; the list need not be complete. For some of these results: A no says only that the protein was not detected with the bait. Tags and fused reporters may be left off the sequences shown.

Consider seven molecules from publication PMC6128693.

The labels stand for the following.
T1: SGF11, GS^rhino tag fusion (TAP bait) (Arabidopsis thaliana) (UniProt Q94BV2)
T1 sequence: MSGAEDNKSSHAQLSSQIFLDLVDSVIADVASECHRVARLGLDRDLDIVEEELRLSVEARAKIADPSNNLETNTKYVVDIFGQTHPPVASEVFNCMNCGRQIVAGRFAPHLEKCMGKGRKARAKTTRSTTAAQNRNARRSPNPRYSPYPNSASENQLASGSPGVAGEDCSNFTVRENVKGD

T2: UBP22, GS^rhino tag fusion (TAP bait) (Arabidopsis thaliana) (UniProt Q9LEW0)
T2 sequence: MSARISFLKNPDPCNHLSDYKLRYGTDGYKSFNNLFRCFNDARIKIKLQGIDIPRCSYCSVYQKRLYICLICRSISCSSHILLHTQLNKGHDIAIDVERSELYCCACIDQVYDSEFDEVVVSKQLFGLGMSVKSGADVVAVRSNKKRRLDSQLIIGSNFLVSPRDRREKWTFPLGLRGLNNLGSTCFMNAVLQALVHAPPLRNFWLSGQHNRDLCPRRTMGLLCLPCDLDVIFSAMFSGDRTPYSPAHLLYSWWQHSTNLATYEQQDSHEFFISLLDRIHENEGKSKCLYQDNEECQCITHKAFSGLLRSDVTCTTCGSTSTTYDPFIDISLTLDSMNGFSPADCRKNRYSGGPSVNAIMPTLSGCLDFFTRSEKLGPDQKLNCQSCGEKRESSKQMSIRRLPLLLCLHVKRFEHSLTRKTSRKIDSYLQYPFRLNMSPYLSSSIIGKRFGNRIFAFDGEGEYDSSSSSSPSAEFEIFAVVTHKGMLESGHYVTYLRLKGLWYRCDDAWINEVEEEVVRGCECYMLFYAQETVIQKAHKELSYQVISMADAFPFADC

B1: ENY2 (AT3G27100), endogenous in Arabidopsis cell culture (protein, UniProt Q6NQ54 1-115)
chain: MKHSVNRPPTPDEDDVADGFEKDKVTLREIINVKLVESGEKENLMELVRDRLVECGWKDEMRIACREHVKKKGRKDVTVDELIRVITPKGRASVPDSVKAELLNRIQNFIVSAAL
B2: TONNEAU1A (protein, UniProt Q9FQ25 1-260)
chain: MDDYTREMMDLKTLVTRTLEKKGVLAKIRAELRASVFEAIEEEDRVIENNEGPPPALLGSCNDRARKLHASPSGRLLSALICEYLDWAQLNHTLIVYQPESNLPKDSWKSELRDFNSNNGFELNRNGDSGPLLLDVLEGFLKFESMTQGMGSSSRRDSETESSSSLESRNPPRRSSASDSLPPQRRPVSASQASDRRAGLSTSGYRKDEFNWRQGNQDTHEEVTRASAALENLQLDRKTRNLTSSWRNVRDGTNEEEGRD
B3: UBP22 (AT5G10790), endogenous in Arabidopsis cell culture (enzyme, UniProt Q9LEW0 1-557)
chain: MSARISFLKNPDPCNHLSDYKLRYGTDGYKSFNNLFRCFNDARIKIKLQGIDIPRCSYCSVYQKRLYICLICRSISCSSHILLHTQLNKGHDIAIDVERSELYCCACIDQVYDSEFDEVVVSKQLFGLGMSVKSGADVVAVRSNKKRRLDSQLIIGSNFLVSPRDRREKWTFPLGLRGLNNLGSTCFMNAVLQALVHAPPLRNFWLSGQHNRDLCPRRTMGLLCLPCDLDVIFSAMFSGDRTPYSPAHLLYSWWQHSTNLATYEQQDSHEFFISLLDRIHENEGKSKCLYQDNEECQCITHKAFSGLLRSDVTCTTCGSTSTTYDPFIDISLTLDSMNGFSPADCRKNRYSGGPSVNAIMPTLSGCLDFFTRSEKLGPDQKLNCQSCGEKRESSKQMSIRRLPLLLCLHVKRFEHSLTRKTSRKIDSYLQYPFRLNMSPYLSSSIIGKRFGNRIFAFDGEGEYDSSSSSSPSAEFEIFAVVTHKGMLESGHYVTYLRLKGLWYRCDDAWINEVEEEVVRGCECYMLFYAQETVIQKAHKELSYQVISMADAFPFADC
B4: TONNEAU1B (protein, UniProt Q9FQ24 1-257)
chain: MDDYTREMMDLKTLVTRTLEKKGVLAKIRAELRASVFEAIEEEDRVIENNEGLPPALLGSCNDRARQLHASPSGRLLSALICEYLDWAQLNHTLKVYQPECNSAKDSWKSEIRDFSINNGYELNRNEDSRPLLLDVLEGFLKFENMTQVMGGSSRRESETESSLSLDTRNPPRRSSASDSLPHQRRSVSASQASGAATSGYRKDESNWRYDTEDMPEEVMRASTALENLQLDRKTRNLTSSWRNVKDGTSEEEEGKD
B5: SGF11, endogenous in Arabidopsis cell culture (protein, UniProt Q94BV2 1-181)
chain: MSGAEDNKSSHAQLSSQIFLDLVDSVIADVASECHRVARLGLDRDLDIVEEELRLSVEARAKIADPSNNLETNTKYVVDIFGQTHPPVASEVFNCMNCGRQIVAGRFAPHLEKCMGKGRKARAKTTRSTTAAQNRNARRSPNPRYSPYPNSASENQLASGSPGVAGEDCSNFTVRENVKGD
B6: DDA1, endogenous in Arabidopsis cell culture (protein, UniProt Q9FFS4 1-101)
chain: MASILGDLPSFDPHNFSQHRPSDPSNPSKMVPTTYRPTHNRTLPPPDQVITTEVKNILIRSFYQRAEEKLRPKRPATDHLAAEHVNKHFRAASSSSSTQGL
B7: DET1, endogenous in Arabidopsis cell culture (protein, UniProt P48732 1-543)
chain: MFTSGNVTARVFERQIRTPPPGASVNRARHFYENLVPSYTLYDVESPDHCFRKFTEDGLFLISFSRNHQELIVYRPSWLTYSTTDDSTTTLPPLPRRASKFDSFFTQLYSVNLASSNELICKDFFLYHQTRRFGLFATSTAQIHDSSSPSNDAVPGVPSIDKITFVLLRLDDGVVLDERVFLHDFVNLAHNMGVFLYDDLLAILSLRYQRIHLLQIRDSGHLVDARAIGYFCREDDELFLNSSSQAMMSQDKSKQQSLSGSKEDDTGENGLRHSLSQPSGSNSFLSGVKQRLLSFIFREIWNEESDNVMRVQSLKKKFYFHFQDYVDLIIWKVQFLDRQHLLIKFGSVDGGVTRSADHHPAFFAVYNMETTDIVAFYQNSAEDLYQLFEQFSDHFTVSSSTPFMNFVTSHSNNVYALEQLKYTKNKSNSFSQFVKKMLLSLPFSCQSQSPSPYFDQSLFRFDEKLISAADRHRQSSDNPIKFISRRQPQTLKFKIKPGPECGTADGRSKKICSFLFHPHLPLAISIQQTLFMPPSVVNIHFRR

The target of one assay is T1, SGF11, GS^rhino tag fusion (TAP bait) (Arabidopsis thaliana). In words: affinity purification with mass spectrometry; tandem affinity purification (TAP) of GS^rhino-tagged bait from Arabidopsis cell suspension cultures (SGF11: dark or light grown; UBP22: light grown), 200 mg total protein extract, LTQ Orbitrap Velos.
Regarding B1, the binding entry was “binds”.

With B2, the binding result is “binds”.

In the case of B3, the binding result is “binds”.

As to B4, the binding result is “binds”.

For a further assay, the target named is T2, UBP22, GS^rhino tag fusion (TAP bait) (Arabidopsis thaliana). Described as above.
Consider B5, for which the binding entry is given as “binds”.

On to B6, for which the binding entry is recorded as “no binding”.

Regarding B7, the binding result was “no binding”.
